These are yes or no findings as the source states them, for the method shown. In cells and extracts the contact can be indirect. For some of these results: A result given as binding can be weak or reduced; the word gives no strength. For some of these results: Tags and fused reporters may be left off the sequences shown.

Amino acid sequences for entries named in this document (tags omitted). A change or cut given only in a name is not applied to a line headed by its entry.
UniProt Q0DNU1: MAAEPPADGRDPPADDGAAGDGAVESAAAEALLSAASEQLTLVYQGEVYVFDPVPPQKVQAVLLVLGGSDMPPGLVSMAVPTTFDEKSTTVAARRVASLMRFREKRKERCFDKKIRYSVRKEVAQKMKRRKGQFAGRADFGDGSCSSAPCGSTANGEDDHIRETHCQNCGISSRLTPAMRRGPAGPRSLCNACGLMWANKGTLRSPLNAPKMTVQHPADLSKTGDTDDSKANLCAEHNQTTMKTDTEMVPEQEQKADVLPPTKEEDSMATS
UniProt Q336P5: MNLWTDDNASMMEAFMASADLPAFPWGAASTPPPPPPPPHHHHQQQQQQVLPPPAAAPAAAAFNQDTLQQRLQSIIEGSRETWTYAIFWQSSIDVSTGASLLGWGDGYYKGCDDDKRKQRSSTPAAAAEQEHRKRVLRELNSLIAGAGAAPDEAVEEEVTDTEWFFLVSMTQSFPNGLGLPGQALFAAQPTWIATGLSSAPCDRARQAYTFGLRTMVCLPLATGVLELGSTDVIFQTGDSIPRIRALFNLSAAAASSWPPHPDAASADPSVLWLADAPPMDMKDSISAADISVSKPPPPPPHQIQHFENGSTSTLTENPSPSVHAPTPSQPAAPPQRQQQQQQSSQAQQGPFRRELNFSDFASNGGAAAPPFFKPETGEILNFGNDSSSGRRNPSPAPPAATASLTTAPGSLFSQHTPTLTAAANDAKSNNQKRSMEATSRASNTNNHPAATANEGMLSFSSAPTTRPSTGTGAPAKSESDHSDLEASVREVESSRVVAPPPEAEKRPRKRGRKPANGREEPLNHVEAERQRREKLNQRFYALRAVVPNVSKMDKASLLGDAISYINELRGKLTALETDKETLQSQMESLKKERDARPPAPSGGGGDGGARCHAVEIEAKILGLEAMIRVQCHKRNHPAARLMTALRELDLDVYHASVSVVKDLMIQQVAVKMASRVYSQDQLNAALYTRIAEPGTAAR

One assay deals with T1, JAZ8-His (rice) (UniProt Q69P94).
T1 sequence: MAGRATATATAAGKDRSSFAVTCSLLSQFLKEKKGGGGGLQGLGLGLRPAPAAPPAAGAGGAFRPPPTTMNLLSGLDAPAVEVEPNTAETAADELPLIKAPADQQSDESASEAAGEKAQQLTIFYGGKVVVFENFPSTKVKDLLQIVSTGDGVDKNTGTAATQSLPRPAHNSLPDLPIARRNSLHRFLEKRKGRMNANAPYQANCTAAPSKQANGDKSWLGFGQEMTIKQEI
Put plainly: co-IP; anti-His monoclonal antibody on Dynabeads Protein G; 1:1 mixture of cell-free expressed JAZ1-His/JAZ8-His/JAZ10-His and GATA19-V5, 2 h at 4 °C; mouse IgG as negative control; Western blot.

The next assay deals with T2, JAZ1-His (rice) (UniProt Q7XPM8).
T2 sequence: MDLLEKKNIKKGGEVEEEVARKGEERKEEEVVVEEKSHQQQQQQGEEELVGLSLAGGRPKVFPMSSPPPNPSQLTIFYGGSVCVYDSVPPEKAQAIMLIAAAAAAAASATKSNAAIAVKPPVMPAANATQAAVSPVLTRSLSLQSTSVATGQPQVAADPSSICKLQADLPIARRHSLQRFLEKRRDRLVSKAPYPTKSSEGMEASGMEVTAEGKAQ
Described as above.

The target of another assay is T3, JAZ1-YC (rice) (UniProt Q7XPM8).
T3 sequence: T2 sequence
The assay is described as follows: split reporter; BiFC of JAZ1-YC with GATA19-YN in Nicotiana benthamiana epidermal cells after agroinfiltration; YFP fluorescence by confocal microscopy.

For another assay, the target named is GATA19-V5 (rice) (UniProt Q0DNU1). Put plainly: co-IP; anti-V5 monoclonal antibody on Dynabeads Protein G; 1:1 combination of cell-free expressed GATA19-V5 with MYC2-Flag, 2 h at 4 °C; Western blot. For orientation: A western blot detects proteins with antibodies after separation by electrophoresis.

As to GATA19-V5 (from UniProt Q0DNU1), the binding result in the assay with JAZ8-His (rice) is recorded as “no binding”; with JAZ1-His (rice) it was “binds”.
Turning to GATA19-YN (rice), the binding entry in the assay with JAZ1-YC (rice) is recorded as “binds”.
As for MYC2-Flag (from UniProt Q336P5 1-699), the binding entry in the assay with GATA19-V5 (rice) was “no binding”.

Source of the values: PMC12048567.
